Test results taken from patent US6436631B1, “Comparative phenotype analysis for assessment of biologically active compounds such as antimicrobials” (priority 2000, dated 2002).
At least one structure is not confirmed: it was looked up by name or label, or the drawing left a doubt.

Assays:
E. coli (MG1655) = assay: BAC combination (synergy/antagonism) testing in ES1, ES2 and ES3 MicroPlate sensitivity panels, tetrazolium violet; type: cell-based; details: in the presence of 235 μg/ml sulfamethoxazole
Protocol: In this Example, the susceptibility of E. coli (MG1655) was tested in the presence of vancomycin (10 μg/ml) or sulfamethoxazole (235 μg/ml) in microarrays containing various additional compounds. The microarrays were present in three Biolog™ sensitivity test panels, referred to as ES1, ES2 and ES3 MicroPlates™. The organisms were added to a sterile aqueous suspension containing 0.40% NaCl, 0.03% pluronic F68, 0.01% phytagel, and 0.01% tetrazolium violet, to a cell density of 85% transmittance (as measured using a BiologTm turbidimeter). The BAC to be tested was added to the suspension just prior to inoculating the organisms (100 μl/well) into the wells of the microarrays. The wells of these ES MicroPlates™ contained a basal broth medium consisting of tryptone (2 g/L), yeast extract (1 g/L), and NaCl (1 g/L). […]

E. coli MG1655 = assay: phenotype microarray (PM) comparative profiling of antimicrobials, S-O-R scoring, distance matrix and dendrogram; type: cell-based; details: 1x level of each antimicrobial (lowest concentration giving detectable inhibition of respiration); 7 PMs, 665 phenotypes, 48 hours
Text: In this Example, experiments are described in which the feasibility of using PMs for analyzing the metabolic effects of antimicrobial compounds and their mechanisms of action were investigated. Specifically, the experiments were designed to determine whether compounds that act via interaction with specific bacterial proteins (“target-specific”) can be distinguished from those acting via non-specific mechanisms, solely on the basis of differences in signature metabolic profiles. […]
An initial set of experiments was performed to select the concentrations of each chemical as it was desirable to use a partially inhibitory concentration. […] Partial inhibitory levels were determined using the criterion of decreased formation of purple color due to inhibition of tetrazolium violet reduction (i.e., respiration). […]
In these experiments, E. coli MG1655 was tested against 20 antimicrobials at two concentrations using 7 PMs each, for a total of 280 PMs. […] Since in these experiments each PM contains 95 phenotypes, the total number of phenotypes analyzed here was 26,600. Each PM was monitored kinetically every 15 minutes using a specialized instrument described is U.S. patent application Ser. No. 09/277,353 (herein incorporated by reference) for an incubation duration of 48 hours. […]

Row | Compound | change of sensitivity of E. coli strain to panel compound (E. coli (MG1655); chlortetracycline at 0.25, 0.50 and 1.0 μg/ml) | clustering in dendrogram of PM S-O-R response (FIG. 4) (E. coli MG1655) | change of sensitivity of E. coli strain to panel compound (E. coli (MG1655); tetracycline at 0.033, 0.066, 0.133 and 0.266 μg/ml)
1 | CN(C)[C@@H]1C(O)=C(C(N)=O)C(=O)[C@@]2(O)C(O)=C3C(=O)c4c(O)ccc(Cl)c4[C@@](C)(O)[C@H]3C[C@@H]12 [chlortetracycline] | increased resistance | – | –
2 | CN(C)[C@@H]1C(O)=C(C(N)=O)C(=O)[C@@]2(O)C(O)=C3C(=O)c4c(O)cccc4[C@@](C)(O)[C@H]3C[C@@H]12 [tetracycline] | – | cluster | increased resistance
